# For at least one compound, name, drawing or mass did not settle the structure.
# System: human umbilical vein endothelial cell (HUVEC) monolayers
# Experiment: Transendothelial electrical resistance (TER, ECIS) of HUVEC monolayers
# Assay type: cell-based
# Settings: DTG at several concentrations; TER difference after 1.5 hour
# Experimental: HUVEC and media were obtained from LifeLine cell technology, PRE-084 from Tocris Biotechne, and CCCP from Abcam. TER was determined with an Electrical Cell-Substrate Impedance Sensor (ECIS; Applied Biophysics). For transfection, 200 nM σ1 siRNA (SEQ ID NO: 2: GGCUUGAGCUCACCACCUA) or control non-targeting RNA (SEQ ID NO: 3: UGGUUUACAUGUUUUCCUA) purchased from Dharmacon was introduced with the Nucleofector II device (Lonza). Cell culture procedures, TER recordings, and protein isolation and transfection protocols have been previously described. Western blotting was done using WES (Protein Simple). Rabbit anti σ1 was purchased from Novus Biologicals NBP1-82479 and mouse anti (β-actin was from cell signaling #3700. Both primaries were used at 1:50 dilution. Seahorse xfp analyzer was used for glycolytic rate and ATP rate with assay kits (Agilent) according to manufacturer's instructions using 40.000 cells/well. Calculation of assay parameters was done using Wave software with its built-in report generators and statistical analysis was done using Prism 7.
compound,measurement,value
"Cc1ccccc1NC(=N)Nc1ccccc1C [DTG, ditolylguanidine]",barrier function of HUVEC monolayers (TER),elevates

# — US11723910B1, “Compositions and methods for modulating the endothelial barrier” (University of South Florida, priority 2019, dated 2023)
